Patent US11684610B2, “Pharmaceutical composition including 1,2-naphthoquinone derivative compound for prevention or treatment of solid cancers or blood cancers” (YUNGJIN PHARM. CO., LTD., priority 2018, dated 2023)
For at least one compound, name, drawing or mass did not settle the structure.

Columns and labels:
[1] = tested on: HL60 cells; assay: Cell viability of HL60 cells, WST-1; type: cell-based, human; details: 24 hours, WST-1, FIG. 1A
Text: (§1) The constructed cell lines were also diverse. Thus, in order to confirm the applicability to a wide range of therapeutic agents that are not therapeutic agents for specific types of acute leukemia, in the present invention, KG1α cells constructed by selecting only cells having a stem cell phenotype from KG1 cells, which are cell lines obtained from a person with acute myelogenous leukemia, were used. HL60 cells, which are cell lines obtained from a person with acute promyelocytic leukemia, and U937 cells, which are cell lines obtained from a person with histiocytic lymphoma, were used.
(§2) KG1α and HL60 cells were cultured in IMDM medium containing 20% FBS (fetal bovine serum), and U937 cells were cultured in RPMI 1640 medium containing 10% FBS. All cells were cultured in an incubator under conditions of 37° C. and 5% CO2, and subcultured once every 2 or 3 days and used in the experiment.
(§3) The HL60 cells or U937 cells cultured in Example 2-1 were inoculated into a 96-well plate at 1×10^5 cells/well, and then for the stabilization of cells, the cells were cultured in an incubator at 37° C. and 5% CO2 for 16 hours or more. Subsequently, the compound 1 synthesized in Example 1 was treated at concentrations of 0.1, 0.5 and 1 μM, respectively, and reacted for 24 hours. […] The absorbance was then measured at 450 nm with a multi-scan machine.

[2] = tested on: U937 cells; assay: Cell viability of U937 cells, WST-1; type: cell-based, human; details: 24 hours, WST-1, FIG. 1B
Text: as §1, §2, §3

## Nc1ncn([C@H]2C[C@H](O)[C@@H](CO)O2)c(=O)n1 [decitabine, reference compound]
[1]
  cell killing effect (cell viability), HL60 cells: concentration-dependent cell killing effects
[2]
  cell killing effect (cell viability), U937 cells: remarkably low
